Measurements as given in patent US11766430B2, “Methods of using a phenoxypropylamine compound to treat pain” (Minerva Neurosciences, Inc., priority 2018, dated 2023).
Where “and” joins values, the source holds several entries; their conditions need not be identical. Equal values may be shown once. The source gives many values for each of these; only a part stands here.

System: carrageenan-induced mechanical hyperalgesia in rats
Test: Carrageenan-induced mechanical hyperalgesia, paw pressure test, time course to 240 min (Example 2)
Type: in vivo, male Sprague-Dawley rats
Details: 1 mg/kg i.p., hydrochloride
Method: In this model, inflammation is induced by intraplantar injection of carrageenan (2%) into the right hindpaw of the rat. Three hours later, reaction thresholds are measured using the paw pressure test. Pressure is gradually applied to both hind paws (inflamed and control) of the rat, and reaction thresholds are determined as the pressure (g) required to elicit paw withdrawal or vocalization. Morphine (3 mg/kg, s.c.) was used as a positive control.
The experiments in this study used fifty (50) male Sprague-Dawley rats (SPF status, Janvier, France), each weighing 204-260 grams. The rats were housed in a temperature (20-24° C.) and relative humidity (45%-65%) controlled room and acclimated to an artificial day/night cycle of 12 hours light (6.30 a.m. to 6.30 p.m.)/12 hours darkness. Rats had free access to sterilized tap water and were fed ad libitum with pelleted complete diet (reference A04, S.A.F.E.). Rats were housed 4 per cage (cages Type E) and were acclimated for a period of at least 5 days before any testing. Each rat was identified by tail markings. Based on the SPF status of the animal facilities, there is no reason to expect that contaminants were present in the food, water or bedding, at levels capable of interfering with the results of the tests.
Pain Test: Static mechanical hyperalgesia was assessed using the Paw Pressure test or Randall & Selitto test (Randall, L. O. and Selitto, J. J., A method for measurement of analgesic activity on inflamed tissue, Arch Int Pharmacodyn, 1957(111): 409-419). This test requires the application of an increasing pressure on the hind paws between a flat surface and a blunt pointer. This test is usually used with animals with one hind paw inflamed by an injection or injured by ligation, and one normal hind paw, to evaluate drugs for analgesic action. The apparatus exerts a steadily increasing force and reaction threshold is determined as the pressure (g) required to elicit paw withdrawal and/or vocalization. In the experiment, animals were gently handled by the experimenter and static mechanical hyperalgesia was assessed. Each reaction threshold measurement was done for both hind paws.
Five (5) experimental groups of 10 rats each were used. Each group was first injected with of 100 μL of a 2% carrageenan suspension in the plantar aspect of the right hindpaw. Three hours after carrageenan injection, paw withdrawal threshold was measured using the paw pressure test (Baseline). The 5 groups were then administered the following: • Group 1: vehicle (0.5% HPMC), i.p., solution (negative control); • Group 2: MIN-117 (0.01 mg/kg, i.p.) in 0.5% HPMC, suspension; • Group 3: MIN-117 (0.1 mg/kg, i.p.) in 0.5% HPMC, suspension; • Group 4: MIN-117 (1 mg/kg, i.p.) in 0.5% HPMC, suspension; and • Group 5: morphine (3 mg/kg, s.c.) in 0.9% NaCl, solution (positive control).
After administering vehicle, MIN-117, or morphine, the antihyperalgesic effect of the compounds was evaluated using the paw pressure test at 0 min. (T0), 30 min., 60 min., 120 min., and 240 min.
Vehicle and MIN-117 were administered intraperitoneally at 10 mL/kg. Morphine was subcutaneously administered at 5 mL/kg. Dosing and testing were performed in a random order by a blinded experimenter except for the morphine-treated group. Doses were expressed in terms of free active substance. Rats were sacrificed at the end of the experiment by CO2 inhalation pending subsequent removal by a certified company.
Results were assessed as: the paw withdrawal threshold (mean±s.e.m.) in grams of contact pressure for each group, calculated from individual paw withdrawal thresholds; the percentage of variation of the paw withdrawal threshold calculated from the mean value of the vehicle-treated group; and/or the percentage of activity. To determine a statistical effect of the test substance and the reference substance, data were analyzed by a non-parametrical test. The significance level was p<0.05.

SMILES: Cc1nnc(-c2cc3c(OC[C@@H](O)CN4CCC(c5ccc(Cl)c(Cl)c5)CC4)cccc3o2)o1.Cl [MIN-117, (2S)-1-(4-(3,4-dichlorophenyl)piperidin-1-yl)-3-((2-(5-methyl-1,3,4-oxadiazol-2-yl)benzofuran-4-yl)oxy)propan-2-ol hydrochloride]
- Nociceptive threshold, control paw, individual rats (30 min): 320 g (4×) and 300 g and 360 g (2×) and 400 g and 440 g and 420 g
- Nociceptive threshold, injured paw, individual rats (30 min): 160 g (2×) and 180 g (4×) and 140 g and 220 g and 200 g (2×)
- Nociceptive threshold, control paw, individual rats (60 min): 360 g (4×) and 320 g (2×) and 380 g and 400 g and 520 g and 480 g
- Nociceptive threshold, injured paw, individual rats (60 min): 180 g (2×) and 220 g (3×) and 140 g and 200 g and 240 g (2×) and 280 g
- Nociceptive threshold, control paw, individual rats (120 min): 420 g (2×) and 360 g (2×) and 400 g (2×) and 320 g and 340 g and 440 g and 460 g
- Nociceptive threshold, injured paw, individual rats (120 min): 240 g (2×) and 200 g (2×) and 220 g (3×) and 260 g (3×)
- Nociceptive threshold, control paw, individual rats (240 min): 360 g (3×) and 320 g and 280 g and 420 g (2×) and 340 g and 440 g and 400 g
- Nociceptive threshold, injured paw, individual rats (240 min): 180 g (6×) and 200 g and 160 g and 220 g (2×)
- Nociceptive threshold, control paw, individual rats (Baseline): 340 g (2×) and 360 g (3×) and 420 g (2×) and 440 g and 380 g and 320 g
- Nociceptive threshold, injured paw, individual rats (Baseline): 220 g (3×) and 160 g (2×) and 140 g and 200 g (2×) and 180 g (2×)
